System: Mia-Pa-Ca-2
Assay: Cell viability (CellTiter-Blue, 72 h), Mia-Pa-Ca-2 pancreatic cancer cells
Assay type: cell-based
Details: MIA-PA-CA2, 1% FBS
Procedure: The following cell lines were tested in this example: Lung Cancer (A549, NCI-H460); Pancreatic cancer (PANC1, Mia-Pa-Ca-2); Melanoma (WM115, A375); Ovarian cancer (OVCAR3, SKOV3); Gastric cancer (MKN45, HGC-27); Renal cancer (ACHN) and Bladder Cancer (RT112).
Each tumour cell line was maintained in vitro in RPMI 1640+10% heat inactivated FBS and 2 mM L-glutamine (growth media) at 37° C. in 5% CO2 and humidified conditions. The cells were harvested, washed, re-suspended into growth medium and counted. The cells were re-suspended into assay media (RPMI 1640+5% heat inactivated FBS+ and 2 mM L-glutamine) at 4×10^4 cells/ml (dependent upon cell type) and plated into the middle 240 wells of 384 well tissue culture plates (Corning CellBind, black-wall plates) 25 μl/well aliquots; 50 μl of growth media was aliquoted into the outer wells. There were 3 plates for each cell line.
The plates were incubated overnight at 37° C., in 5% humidified CO2.
The phytocannabinoid test compounds were prepared in 100% DMSO vehicle at a stock concentration of 20 and 40 mM.
Starting with the 20 mM stock in DMSO, this was serially diluted (2 fold) in DMSO in a 96-well plate, to 20 (no dilution), 10, 5, 2.5, 1.25, 0.625, 0.315, 0.157 and […]. Following this, 10 ul of each compound dilution was diluted into 990 ul of 1% (v/v) FBS media in a deep well block making the final concentrations of 200, 100, 50, 25, 12.5, 6.25, 3.125, 1.56 and 0.79 μM (2× final assay concentrations and 1% DMSO).
An equal volume of each cannabinoid in the combination (stock concentration 40 mM) was mixed together to make a stock of 20 mM of each cannabinoid in DMSO. This was serially diluted (2 fold) in DMSO in a 96-well plate, to 20 (no dilution), 10, 5, 2.5, 1.25, 0.625, 0.315, 0.157 and […]. Following this, 10 ul of each combination dilution was diluted into 990 ul of 1% (v/v) FBS media in a deep well block making the final concentrations of 200, 100, 50, 25, 12.5, 6.25, 3.125, 1.56 and 0.79 μM (2× final assay concentrations and 1% DMSO).
Gemcitabine SOC was prepared in 100% DMSO to give a stock concentration of 20 mM. This was then serially diluted (3 fold) in DMSO in a 96-well plate, to 20 (no dilution), 6.6, 2.2, 0.741, 0.247, 0.082, 0.027, 0.009 and 0.003 mM. Following this, 10 ul of each dilution was further diluted into 990 ul of 1% (v/v) FBS media making the final concentrations of 200 (no dilution), 66.66, 22.22, 7.41, 2.47, 0.82, 0.27, 0.09, 0.03 μM (2× final assay concentrations and 1% DMSO).
The plates were incubated for 72 h at 37° C. in 5% humidified CO2. To develop the plates, at 72 h, 10 μl of CellTiter-Blue™ reagent was added to each test/blank well.
The plates were incubated at 37° C., 5% humidified CO2. Fluorescence was measured using a Flex II Station plate reader (570 nm excitation wavelength, 600 nm emission wavelength, 590 nm cut-off) after 3 h.
The phytocannabinoid compounds CBD, CBGA, CBG, CBDA, THCV and THC were tested on a panel of lung (A549, NCI-H460), pancreatic (PANC1, Mia-Pa-Ca-2), melanoma (WM115, A375), ovarian (OVCAR3, SKOV3), gastric (MKN45, HGC-27), renal (ACHN) and bladder (RT112) cancer cell lines according to the protocol for 72 h in media containing 1% FBS.
The IC50 values for each phytocannabinoid and combination of CBD with the other phytocannabinoids was calculated for each cell line. The raw data values expressed in relative fluorescent units were normalised to the vehicle for each individual plate and any reduction in fluorescence indicated a decrease in viability.
This calculation was as described in Example 1 above.

Row | Structure (SMILES) | m (shape parameter of dose effect curve)
1 | CCCCCc1cc(O)c(C/C=C(\C)CCC=C(C)C)c(O)c1C(=O)O [CBGA, Cannabigerolic acid] | 4.65
2 | CCCCCc1cc(O)c(C/C=C(\C)CCC=C(C)C)c(O)c1 [CBG, Cannabigerol] | 2.87
3 | CCCc1cc(O)c2c(c1)OC(C)(C)[C@@H]1CCC(C)=C[C@@H]21 [THCV, Tetrahydrocannabivarin] | 4.45
4 | C=C(C)[C@@H]1CCC(C)=C[C@H]1c1c(O)cc(CCCCC)c(C(=O)O)c1O [CBDA, Cannabidiolic acid] | 2.03
5 | C=C(C)[C@@H]1CCC(C)=C[C@H]1c1c(O)cc(CCCCC)cc1O [CBD, Cannabidiol] | 3.26

Source: patent US9962341B2, “Active pharmaceutical ingredient (API) comprising cannabinoids for use in the treatment of cancer” (GW Pharma Limited, priority 2014, dated 2018)
